Results published in PubChem BioAssay AID330 (DTP/NCI, 2004).
The list shows only some results of the screen, not a fair sample: it gathers tests that were run many times, whatever their T/C, doses with no T/C, and many T/C values between a quarter and a half above the control. Further doses and runs are listed elsewhere. T/C gives the treated animals as a percentage of the vehicle group. Some doses have a count of surviving animals in place of a T/C: the source holds a T/C of zero for them, seemingly a mark for toxic or unscored doses. Some survivor counts are full or nearly so, which does not show that the dose was tolerated: the source hardly ever lists a survival T/C far under the control, and the zero likely stands for such cases as well. Survivors were counted at the toxicity check, usually on the fifth day, unless a day is given; later deaths do not show. Schedule codes are those of the source, read here as Q, the interval in days (D) or hours (H), X, the number of doses. Some entries were tested several times; the results are listed from low to high. For survival time, the PubChem record calls one and a half times the control and up active, and a quarter to a half above the control has no call in these data; cut-offs in other NCI protocols can differ. Some T/C values are followed by the survivors on the day toxicity was checked, most often the fifth; without a count, all were alive then.

Test system: P388 leukemia ip, CD2F1 mice, survival T/C
Assay: NCI In Vivo Anticancer Drug Screen. Data for tumor model P388 Leukemia (intraperitoneal) in CD2F1 (CDF1) mice
Conditions: T/C endpoint: median survival time, higher T/C = longer survival
[1] = dose: 50.0 mg/kg/injection, schedule: Q01DX009 (ip), vehicle: saline with Tween-80
[2] = dose: 100.0 mg/kg/injection, schedule: Q01DX009 (ip), vehicle: saline with Tween-80
[3] = dose: 200.0 mg/kg/injection, schedule: Q01DX009 (ip), vehicle: saline with Tween-80
[4] = dose: 200.0 mg/kg/injection, schedule: Q01DX005 (ip), vehicle: saline with Tween-80
[5] = dose: 25.0 mg/kg/injection, schedule: Q01DX009 (ip), vehicle: saline with Tween-80
[6] = dose: 100.0 mg/kg/injection, schedule: Q01DX009 (ip), vehicle: Klucel (hydroxypropylcellulose) (HPC)
[7] = dose: 120.0 mg/kg/injection, schedule: Q01DX005 (ip), vehicle: saline with Tween-80
[8] = dose: 240.0 mg/kg/injection, schedule: Q01DX005 (ip), vehicle: saline with Tween-80
[9] = dose: 200.0 mg/kg/injection, schedule: Q01DX009 (ip), vehicle: Klucel (hydroxypropylcellulose) (HPC)
[10] = dose: 30.0 mg/kg/injection, schedule: Q01DX005 (ip), vehicle: saline
[11] = dose: 100.0 mg/kg/injection, schedule: Q04DX003 (ip), vehicle: saline

SMILES: O=C(O)C(O)C(O)C(=O)O.[Bi].[Na+] (centres undefined)
- survivor count (dose: 200.0 mg/kg/injection, schedule: Q01DX009 (ip), vehicle: saline): 0 of 6

SMILES: CCCCCCCCCCCCCC#CC(=O)O
- survivor count [1]: 4 of 6
- survivor count [2]: 3 of 6
- survivor count [3]: 1 of 6

SMILES: N#CC1=CNc2ccccc2N=C1N
- survivor count [4]: 0 of 5

SMILES: C=CC(C)(C)C12CC3C(=O)N/C(=C\c4cnc[nH]4)C(=O)N3C1Nc1ccccc12 (centres undefined)
- survivor count (dose: 12.5 mg/kg/injection, schedule: Q01DX009 (ip), vehicle: saline with Tween-80): 6 of 6

SMILES: CC1(C)CC2=NO[Se]3=C2C(=NO3)C1
- survivor count [5]: 0 of 6
- survivor count [1]: 6 of 6
- survivor count [2]: 2 of 6
- survivor count [3]: 0 of 6

SMILES: Cc1noc(/N=N/N(C)c2ccccc2)c1C
- survivor count [3]: 3 of 6

SMILES: C=C[C@]1(C)C[C@@H](OC(=O)CO)[C@@]2(C)[C@H](C)CC[C@]3(CCC(=O)[C@H]32)[C@@H](C)[C@@H]1O
- T/C [6]: 94, 98 [5 of 6 alive], 109 [5 of 6 alive], 120 % of control
- survivor count (dose: 400.0 mg/kg/injection, schedule: Q01DX009 (ip), vehicle: Klucel (hydroxypropylcellulose) (HPC)): 2 of 6

SMILES: CC(=N\N)/C(C)=N/N
- survivor count [1]: 4 of 6
- survivor count [2]: 1 of 6 and 3 of 6
- survivor count [3]: 0 of 6

SMILES: O=C(OCCOc1ccc(C(F)(F)F)cc1[N+](=O)[O-])c1ccc(Cl)cc1Cl
- survivor count (dose: 60.0 mg/kg/injection, schedule: Q01DX005 (ip), vehicle: saline with Tween-80): 6 of 6
- survivor count [7]: 6 of 6
- survivor count [8]: 6 of 6

SMILES: O=C1c2ccccc2C(=O)C1(Br)C(Cl)c1ccccc1 (centres undefined)
- survivor count [9]: 5 of 6
- survivor count (dose: 400.0 mg/kg/injection, schedule: Q04DX003 (ip), vehicle: Klucel (hydroxypropylcellulose) (HPC)): 5 of 6

SMILES: CN(C)CCCN=c1c2ccccc2n(C)c2[nH]c(=O)n(C)c(=O)c12
- T/C [10]: 132 % of control
- T/C (dose: 60.0 mg/kg/injection, schedule: Q01DX005 (ip), vehicle: saline): 127 % of control
- survivor count (dose: 120.0 mg/kg/injection, schedule: Q01DX005 (ip), vehicle: saline): 5 of 6
- survivor count (dose: 240.0 mg/kg/injection, schedule: Q01DX005 (ip), vehicle: saline): 3 of 6

SMILES: O=C(O)C(Cc1ccc(O)cc1)NSc1ccccc1[N+](=O)[O-] (centres undefined)
- survivor count (dose: 400.0 mg/kg/injection, schedule: Q01DX009 (ip), vehicle: water): 3 of 6

SMILES: Nc1nc(Cl)nc2c1ncn2C1OC(CO)C(O)C1O (centres undefined)
- T/C (dose: 12.5 mg/kg/injection, schedule: Q01DX010 (ip), vehicle: carboxymethylcellulose (CMC)): 130 % of control

SMILES: C=C(CN1CCN(C)CC1)C(=O)c1ccccc1
- survivor count (dose: 15.0 mg/kg/injection, schedule: Q01DX005 (ip), vehicle: saline): 2 of 6
- survivor count [10]: 0 of 6

SMILES: CC([NH-])C[NH-].O=[N+]([O-])O.O=[N+]([O-])O.[Pt+2] (centres undefined)
- T/C (dose: 3.12 mg/kg/injection, schedule: Q04DX002 (ip), vehicle: saline): 127 and 130 % of control
- T/C (dose: 6.25 mg/kg/injection, schedule: Q04DX002 (ip), vehicle: saline): 147 % of control

SMILES: CCCCCCCCCCCCCCCCCCCCCCCCC(O)C(=O)O (centres undefined) (tested in a mixture with another compound)
- survivor count (dose: 100.0 mg/kg/injection, schedule: Q01DX005 (ip), vehicle: saline with Tween-80): 6 of 6

SMILES: Cc1cc(N=[N+]=[N-])c2cc(F)ccc2n1
- survivor count [7]: 2 of 6 and 3 of 6
- survivor count [8]: 0 of 6

SMILES: C=C1C(=O)OC2C1CCC(=C)C1CC(OC3OC(CO)C(O)C(O)C3O)C(=C)C12 (centres undefined)
- T/C (dose: 200.0 mg/kg/injection, schedule: Q04DX003 (ip), vehicle: saline with Tween-80): 127 % of control

SMILES: C[N+](C)(C)C[c-]1[c-][c-][c-][c-]1.[Fe].[c-]1[c-][c-][cH-][c-]1
- survivor count [5]: 0 of 6
- survivor count [1]: 0 of 6
- survivor count [2]: 0 of 6
- survivor count [3]: 0 of 6

SMILES: COc1ccc(CSC(=S)Nc2ccc(C)c(Br)c2)cc1
- survivor count (dose: 50.0 mg/kg/injection, schedule: Q01DX009 (ip), vehicle: suspension in saline): 5 of 6

SMILES: OC1CC2c3ccccc3C1C1CCCCN21 (centres undefined)
- survivor count (dose: 100.0 mg/kg/injection, schedule: Q04DX002 (ip), vehicle: saline): 2 of 5
- survivor count (dose: 200.0 mg/kg/injection, schedule: Q04DX002 (ip), vehicle: saline): 0 of 5
- survivor count (dose: 400.0 mg/kg/injection, schedule: Q04DX002 (ip), vehicle: saline): 0 of 5

SMILES: N=C(N)c1ccc(/C=C/c2cc3ccc(C(=N)N)cc3[nH]2)cc1
- T/C (dose: 12.5 mg/kg/injection, schedule: Q04DX003 (ip), vehicle: saline): 125 % of control
- T/C (dose: 25.0 mg/kg/injection, schedule: Q04DX003 (ip), vehicle: saline): 136 % of control
- T/C [11]: 144 % of control [5 of 6 alive]
- survivor count (dose: 200.0 mg/kg/injection, schedule: Q04DX003 (ip), vehicle: saline): 0 of 6
- survivor count (dose: 400.0 mg/kg/injection, schedule: Q04DX003 (ip), vehicle: saline): 0 of 6

SMILES: CCCCCC(O)/C=C/[C@H]1C(O)CC2OC(CSCCC(=O)O)C[C@@H]21 (some centres undefined)
- survivor count (dose: 400.0 mg/kg/injection, schedule: Q04DX002 (ip), vehicle: saline with Tween-80): 6 of 6

SMILES: Cc1cc(NC(=O)NCc2ccc(N3C(N)=NC(N)=NC3(C)C)cc2)ccc1S(=O)(=O)F
- T/C [5]: 127 % of control
- T/C [1]: 144 % of control
- T/C (dose: 50.0 mg/kg/injection, schedule: Q04DX003 (ip), vehicle: saline): 127 % of control
- T/C [11]: 136 % of control

SMILES: NC(CO)(CO)CO
- survivor count (dose: 3200.0 mg/kg/injection, schedule: Q01DX007 (ip), vehicle: saline): 0 of 5

SMILES: COc1ccc(N/C=C2\C(=O)CCc3c2oc2cc(Cl)c(O)c(Cl)c32)cc1
- survivor count (dose: 240.0 mg/kg/injection, schedule: Q01DX005 (ip), vehicle: Klucel (hydroxypropylcellulose) (HPC)): 2 of 6

SMILES: NC(=O)C(CCO)NC(=O)OCc1ccccc1 (centres undefined)
- T/C (dose: 64.0 mg/kg/injection, schedule: Q01DX009 (ip), vehicle: other): 133 % of control

SMILES: CCC(=O)OCc1c(-c2ccccc2)nc2sccn12
- survivor count (dose: 100.0 mg/kg/injection, schedule: Q01DX001 (ip), vehicle: Klucel (hydroxypropylcellulose) (HPC)): 4 of 6
- survivor count (dose: 400.0 mg/kg/injection, schedule: Q01DX001 (ip), vehicle: Klucel (hydroxypropylcellulose) (HPC)): 2 of 6

SMILES: Cc1ccc2c(ccc(CC(=S)[S-])[n+]2C)c1
- T/C (dose: 50.0 mg/kg/injection, schedule: Q01DX009 (ip), vehicle: Klucel (hydroxypropylcellulose) (HPC)): 126 % of control
- T/C [6]: 130 and 140 % of control
- survivor count [9]: 0 of 6 and 6 of 6

SMILES: COc1ccc(C(CC(=O)NCCCl)CC(=O)NCCCl)cc1
- survivor count (dose: 400.0 mg/kg/injection, schedule: Q01DX001 (ip), vehicle: suspension in saline): 0 of 6

SMILES: CC(C)(C)C1=CS(=O)(=O)C(C(C)(C)C)C(O)O1 (centres undefined)
- survivor count [1]: 3 of 6
- survivor count [2]: 0 of 6

SMILES: CS(=O)(=O)c1cc(C(F)(F)F)cc([N+](=O)[O-])c1Cl
- survivor count [2]: 6 of 6

SMILES: CCCCn1c(C)nc2ccccc21
- survivor count [4]: 0 of 5

SMILES: CCn1cc(C(=O)O)c(=O)c2nc(S(C)=O)sc21 (centres undefined)
- survivor count [7]: 3 of 6
- survivor count [8]: 3 of 6

SMILES: COc1cc2c(cc1OC)-c1c(C)c3ccc(OC)c(NCCN)c3c[n+]1CC2
- survivor count (dose: 50.0 mg/kg/injection, schedule: Q04DX003 (ip), vehicle: water): 0 of 6 and 3 of 6
- survivor count (dose: 100.0 mg/kg/injection, schedule: Q04DX003 (ip), vehicle: water): 0 of 6
- survivor count (dose: 200.0 mg/kg/injection, schedule: Q04DX003 (ip), vehicle: water): 0 of 6
- survivor count (dose: 400.0 mg/kg/injection, schedule: Q04DX003 (ip), vehicle: water): 0 of 6

SMILES: CNCCCc1cc(-c2ccc([N+](=O)[O-])cc2)n[nH]1
- survivor count (dose: 400.0 mg/kg/injection, schedule: Q04DX002 (ip), vehicle: Klucel (hydroxypropylcellulose) (HPC)): 2 of 6

SMILES: CC(=O)OCC12C(OC(C)=O)CC(C)C3(CC(c4ccoc4)OC3=O)C1CCC(=O)C2(O)CCl (centres undefined)
- survivor count (dose: 50.0 mg/kg/injection, schedule: Q01DX005 (ip), vehicle: saline + Tween-80 + alcohol): 6 of 6
